For at least one compound, name, drawing or mass did not settle the structure.
Test system: LIT1 strain
Assay: Release of DNA and growth of the LIT1 lysis reporter strain with translational inhibitors
Format: cell-based, Acinetobacter
Settings: LIT1 clone; 2 h (chloramphenicol) or 1.5 h (erythromycin, tetracycline)
Experimental: The LIT1 cells were inoculated in LB at OD600 0.05 and grown at 37° C. to OD600 0.2 at which time antibiotics were added at indicated concentrations. Two (chloramphenicol) or 1.5 (erythromycin and tetracycline) hours later the OD600 of the cultures were measured, cells were spun down and the released DNA was purified as described above. The amounts of DNA in μg normalized per milliliter of culture was determined fluorimetrically by adding an aliquot of the isolated DNA to the solution of ethidium bromide (0.5 μg/ml) and measuring the fluorescence at λex 540 and λem 580 nm (FIG. 7). The values obtained were compared with the calibration curve for known amounts of DNA.

CN(C)[C@@H]1C(O)=C(C(N)=O)C(=O)[C@@]2(O)C(O)=C3C(=O)c4c(O)cccc4[C@@](C)(O)[C@H]3C[C@@H]12 [tetracycline]
DNA released in presence of antibiotic versus absence, normalized per ml of culture: almost ten-fold
